The supplement of paper PMC9233669
Variants at the background level are over-represented here.

Columns and labels:
biotinyl-Val-oxazolone = test: self-aminoacylation, catalytic enhancement (BVO) (fold over background); higher = more active; k-Seq, kA / k0A0; sequences stand for … in GGGAAUGGAUCCACAUCUACGAAUUC…UUCACUGCAGACUUGACGAAGCUG
Outline: (§1)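 The uncatalyzed rate is the low-activity peak of a bimodal Gaussian fit, and catalytic enhancement is median kA divided by it. The kA values came from pseudo-first-order fits, with 1000 bootstraps, of per-sequence fraction reacted measured by streptavidin capture, triplicate qPCR and Illumina sequencing. Mutagenized RNA pools with a 21-nt variable region (0.43 μM) were reacted with each biotinyl-aminoacyl-oxazolone at 2–1250 μM in 50 μL HEPES/NaCl/KCl/MgCl2/CaCl2 buffer with 5% acetonitrile, pH 6.9–7.0, for 90 minutes at room temperature.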

biotinyl-Ile-oxazolone = test: self-aminoacylation, catalytic enhancement (BIO) (fold over background); higher = more active; k-Seq, kA / k0A0; sequences stand for … in GGGAAUGGAUCCACAUCUACGAAUUC…UUCACUGCAGACUUGACGAAGCUG
Outline: as §1

biotinyl-Trp-oxazolone = test: self-aminoacylation, catalytic enhancement (BWO) (fold over background); higher = more active; k-Seq, kA / k0A0; sequences stand for … in GGGAAUGGAUCCACAUCUACGAAUUC…UUCACUGCAGACUUGACGAAGCUG
Outline: as §1

biotinyl-Met-oxazolone = test: self-aminoacylation, catalytic enhancement (BMO) (fold over background); higher = more active; k-Seq, kA / k0A0; sequences stand for … in GGGAAUGGAUCCACAUCUACGAAUUC…UUCACUGCAGACUUGACGAAGCUG
Outline: as §1

biotinyl-Leu-oxazolone = test: self-aminoacylation, catalytic enhancement (BLO) (fold over background); higher = more active; k-Seq, kA / k0A0; sequences stand for … in GGGAAUGGAUCCACAUCUACGAAUUC…UUCACUGCAGACUUGACGAAGCUG
Outline: as §1

| Sequence | self-aminoacylation (biotinyl-Val-oxazolone) | self-aminoacylation (biotinyl-Ile-oxazolone) | self-aminoacylation (biotinyl-Trp-oxazolone) | self-aminoacylation (biotinyl-Met-oxazolone) | self-aminoacylation (biotinyl-Leu-oxazolone) |
| --- | --- | --- | --- | --- | --- |
| AAGCUUGCUAACAGUCGCAAG [Fam3.1 aminoacylation ribozyme variant] | 1.73 | 1.83 | 1.39 |  |  |
| AGUACCCUGGUCAUCGAGUAA [Fam2.1 aminoacylation ribozyme variant] | 1.53 | 1.47 | 1.7 |  |  |
| AUUCACCGAGGUCAUCGGGUC [Fam2.2 aminoacylation ribozyme variant] |  |  | 1.44 | 1.97 |  |
| AUUCACCUAAGUCAUCGGGUU [Fam2.2 aminoacylation ribozyme variant] | 1.78 | 1.95 | 1.71 |  |  |
| AUUCACCUACGUCAUCUGGUG [Fam2.2 aminoacylation ribozyme variant] | 1.55 | 1.41 | 1.81 |  |  |
| AUUCACCUAGGUCAACGAGUG [Fam2.2 aminoacylation ribozyme variant] | 1.95 |  | 1.81 |  |  |
| AUUCACCUAGGUCAGCGUGUG [Fam2.2 aminoacylation ribozyme variant] | 1.71 | 1.58 | 1.91 |  |  |
| CCACACUUCAAGGAAUCGGUC [Fam1B.1 aminoacylation ribozyme variant] | 0.971 | 0.936 |  | 0.903 | 1.11 |
| CCACACUUCAAUAAAUCGGUC [Fam1B.1 aminoacylation ribozyme variant] | 0.706 | 0.714 |  | 0.626 | 0.695 |
| CCACACUUCAGGCAAUCGCUC [Fam1B.1 aminoacylation ribozyme variant] |  |  | 1.84 | 2 |  |
| CCACAUUUCAAGCAAUCGGUU [Fam1B.1 aminoacylation ribozyme variant] | 1.71 | 1.59 |  | 1.62 | 1.56 |
| CCACUCCAAACAAUCGGUCUG [Fam1A.1 aminoacylation ribozyme variant] | 1.22 | 1.11 |  | 1.13 | 1.09 |
| CCACUCUUCAAGCAAUCGGUC [Fam1B.1 aminoacylation ribozyme variant] | 1.12 | 0.978 |  | 0.921 | 1.2 |
| CCACUUAAAACAAUCGGUCUG [Fam1A.1 aminoacylation ribozyme variant] | 1.13 | 1.11 |  | 1.44 | 1.05 |
| CCAUACUUCAAGCAAUCGGUC [Fam1B.1 aminoacylation ribozyme variant] | 1.11 | 1.07 |  | 0.921 | 1.14 |
| CCCCACUUCUAGCAAUCGGUC [Fam1B.1 aminoacylation ribozyme variant] | 1.53 | 1.26 |  | 1.06 | 1.01 |
| CGACACUUCAAGCAAACGGUC [Fam1B.1 aminoacylation ribozyme variant] | 0.76 | 0.814 |  | 0.687 | 0.537 |
| CGACACUUCAAGGAAUCGGUC [Fam1B.1 aminoacylation ribozyme variant] | 1.73 | 2.39 |  | 1.42 | 1.89 |
| CGACUUCAAACAAUCGGACUG [Fam1A.1 aminoacylation ribozyme variant] | 0.956 | 1.28 |  | 1.04 | 1.15 |
| CGAGACUUCAAGCAAUCGGUC [Fam1B.1 aminoacylation ribozyme variant] | 1.45 | 1.29 |  | 1.39 | 1.12 |

| Sequence | self-aminoacylation (biotinyl-Val-oxazolone) | self-aminoacylation (biotinyl-Ile-oxazolone) | self-aminoacylation (biotinyl-Trp-oxazolone) | self-aminoacylation (biotinyl-Met-oxazolone) | self-aminoacylation (biotinyl-Leu-oxazolone) |
| --- | --- | --- | --- | --- | --- |
| CGAGUUCAAACAAUCGGUCUG [Fam1A.1 aminoacylation ribozyme variant] | 1.04 | 1.15 |  | 1.07 | 1.25 |
| CUAAUUCAAACAAUCGGCCUG [Fam1A.1 aminoacylation ribozyme variant] | 1.04 | 1.15 |  | 1.07 | 1.18 |
| CUACACUUAAAGCAAUCGGUC [Fam1B.1 aminoacylation ribozyme variant] | 0.738 | 0.786 |  | 0.713 | 0.696 |
| CUACACUUCAACCAAUCGGUC [Fam1B.1 aminoacylation ribozyme variant] | 1.19 | 1.28 |  | 1.36 | 1.94 |
| CUACUCCAACCAAUCGGUCUG [Fam1A.1 aminoacylation ribozyme variant] | 0.706 | 0.623 |  | 0.74 | 0.855 |
| CUACUUCAAACAAACGGUCGG [Fam1A.1 aminoacylation ribozyme variant] | 0.944 | 1.05 |  | 0.726 | 0.809 |
| CUACUUCAAACAAUCAGUCGG [Fam1A.1 aminoacylation ribozyme variant] | 1 | 1.32 |  | 1.29 | 1.55 |
| CUACUUCAAACAAUCAGUCUG [Fam1A.1 aminoacylation ribozyme variant] | 0.889 | 0.869 |  | 0.831 | 1.08 |
| CUACUUCAAACAAUCGGUCUA [Fam1A.1 aminoacylation ribozyme variant] | 0.936 | 0.896 |  | 0.774 | 0.956 |
| CUACUUCAAACAAUCGGUUUA [Fam1A.1 aminoacylation ribozyme variant] | 0.832 | 0.94 |  | 0.889 | 0.759 |
| CUACUUCAAACAAUCUCUCUG [Fam1A.1 aminoacylation ribozyme variant] | 0.823 | 0.705 |  | 0.648 | 0.771 |
| CUACUUCAAACGAUCCGUCUG [Fam1A.1 aminoacylation ribozyme variant] | 0.808 | 0.783 |  | 0.958 | 0.787 |
| CUACUUCAAAUAAUCGGUAUG [Fam1A.1 aminoacylation ribozyme variant] | 0.681 | 0.66 |  | 0.571 | 0.697 |
| CUACUUCAACAAAUCGGUCUG [Fam1A.1 aminoacylation ribozyme variant] | 0.844 | 0.856 |  | 0.632 | 1.08 |
| CUACUUCAAUGAAUCGGUCUG [Fam1A.1 aminoacylation ribozyme variant] | 0.817 | 0.853 |  | 0.938 | 0.96 |
| CUACUUCAGACAAUCGGCCUG [Fam1A.1 aminoacylation ribozyme variant] | 1.56 | 1.54 |  | 1.5 | 1.58 |
| CUACUUCAUACAAUCGUUCUG [Fam1A.1 aminoacylation ribozyme variant] | 0.655 | 0.535 |  | 0.476 | 0.477 |
| CUAGUUCAAACAAUCAGUCUG [Fam1A.1 aminoacylation ribozyme variant] | 0.784 | 0.869 |  | 0.742 | 0.756 |
| CUCCCUCAAACAAUCGGUCUG [Fam1A.1 aminoacylation ribozyme variant] | 1.43 | 1.29 |  | 1.09 | 1.41 |
| CUCCUUCAAUCAAUCGGUCUG [Fam1A.1 aminoacylation ribozyme variant] | 0.939 | 0.989 |  | 0.88 | 1.58 |

| Sequence | self-aminoacylation (biotinyl-Val-oxazolone) | self-aminoacylation (biotinyl-Ile-oxazolone) | self-aminoacylation (biotinyl-Trp-oxazolone) | self-aminoacylation (biotinyl-Met-oxazolone) | self-aminoacylation (biotinyl-Leu-oxazolone) |
| --- | --- | --- | --- | --- | --- |
| CUGCGUCAAACAAUCGGUCUG [Fam1A.1 aminoacylation ribozyme variant] | 1.5 | 1.13 |  | 1.36 | 1.36 |
| CUGCUUCAAACAAUCGAUCUG [Fam1A.1 aminoacylation ribozyme variant] | 0.638 | 0.66 |  | 0.615 | 0.649 |
| CUGCUUCAAACAAUCGGUCCG [Fam1A.1 aminoacylation ribozyme variant] | 1.38 | 1.35 |  | 1.34 | 2.38 |
| CUGCUUCAAAUAAUCGGUCUG [Fam1A.1 aminoacylation ribozyme variant] | 0.939 | 1.11 |  | 1.14 | 1.53 |
| CUUACCCUGGUCAACGAGUGA [Fam2.1 aminoacylation ribozyme variant] | 3.29 | 2.56 |  | 5.06 | 5.08 |
| CUUCACCUAGGUCAACGGGUG [Fam2.2 aminoacylation ribozyme variant] | 1.97 | 1.81 | 1.86 |  |  |
| CUUCUUCAAAUAAUCGGUCUG [Fam1A.1 aminoacylation ribozyme variant] | 0.9 | 0.947 |  | 0.979 | 1.05 |
| GUACUUCAAGCAAUCGGUCUG [Fam1A.1 aminoacylation ribozyme variant] | 1.17 | 1.08 |  | 1.1 | 1.23 |
| GUGUUUGCUAAUAGUCGCAAG [Fam3.1 aminoacylation ribozyme variant] | 1.72 | 1.99 |  | 1.8 | 1.71 |
| GUUACCCUGGUCAUCGGGUGA [Fam2.1 aminoacylation ribozyme variant] | 36.7 | 30.9 |  | 89.7 | 92.1 |
| GUUCAACUAGGUCAUCGGGUG [Fam2.2 aminoacylation ribozyme variant] | 4.16 | 4.28 |  | 5.04 | 6.94 |
| GUUCACCUAGGUGAUCGGGUG [Fam2.2 aminoacylation ribozyme variant] | 3.88 | 3.88 |  | 3.88 | 4.25 |
| UAGUUUCCUAAUAGUCGCAAG [Fam3.1 aminoacylation ribozyme variant] | 1.52 | 1.9 |  | 1.95 | 1.55 |
| UAGUUUGCUAAUAGUCGUAAG [Fam3.1 aminoacylation ribozyme variant] | 1 | 1.14 |  | 1.21 | 0.88 |
| UCACAAUUCAAGCAAUCGGUC [Fam1B.1 aminoacylation ribozyme variant] | 0.986 | 1.04 |  | 0.989 | 0.949 |
| UCACACUUCAAGGAAUCGGUC [Fam1B.1 aminoacylation ribozyme variant] | 0.914 | 0.913 |  | 0.903 | 0.918 |
| UUACUUCAAACAAUCGGUCAG [Fam1A.1 aminoacylation ribozyme variant] | 1.2 | 1.32 |  | 1.23 | 1.46 |
| UUACUUCAGACAAUCGGUCUG [Fam1A.1 aminoacylation ribozyme variant] | 1.12 | 1.14 |  | 1.11 | 1.3 |
| UUUAGCCUGGUCAUCGAGUGA [Fam2.1 aminoacylation ribozyme variant] | 4.28 | 4.42 |  | 5.59 | 5.82 |
